This assay concerns the target Als3 on the surface of C. albicans hyphae (WT strain SN250 and the als3^Δ/Δ::ALS3 complemented strain) (C. albicans) (UniProt Q59L12). The assay is described as follows: cross-linking + pull-down; mouse iBMDM cells incubated with hyphae 45 min 37 °C in RPMI, DSP 1.5 mM 30 min, lysis in TBS 1% β-OG 1% BSA, hyphae washed 6 times, hypha-bound CD18 blotted.

By UniProt entry, the sequences of proteins in these tests, tags left out. Where a name states a change or a piece, a line headed by the entry shows the natural chain unless it says otherwise.
UniProt P05555: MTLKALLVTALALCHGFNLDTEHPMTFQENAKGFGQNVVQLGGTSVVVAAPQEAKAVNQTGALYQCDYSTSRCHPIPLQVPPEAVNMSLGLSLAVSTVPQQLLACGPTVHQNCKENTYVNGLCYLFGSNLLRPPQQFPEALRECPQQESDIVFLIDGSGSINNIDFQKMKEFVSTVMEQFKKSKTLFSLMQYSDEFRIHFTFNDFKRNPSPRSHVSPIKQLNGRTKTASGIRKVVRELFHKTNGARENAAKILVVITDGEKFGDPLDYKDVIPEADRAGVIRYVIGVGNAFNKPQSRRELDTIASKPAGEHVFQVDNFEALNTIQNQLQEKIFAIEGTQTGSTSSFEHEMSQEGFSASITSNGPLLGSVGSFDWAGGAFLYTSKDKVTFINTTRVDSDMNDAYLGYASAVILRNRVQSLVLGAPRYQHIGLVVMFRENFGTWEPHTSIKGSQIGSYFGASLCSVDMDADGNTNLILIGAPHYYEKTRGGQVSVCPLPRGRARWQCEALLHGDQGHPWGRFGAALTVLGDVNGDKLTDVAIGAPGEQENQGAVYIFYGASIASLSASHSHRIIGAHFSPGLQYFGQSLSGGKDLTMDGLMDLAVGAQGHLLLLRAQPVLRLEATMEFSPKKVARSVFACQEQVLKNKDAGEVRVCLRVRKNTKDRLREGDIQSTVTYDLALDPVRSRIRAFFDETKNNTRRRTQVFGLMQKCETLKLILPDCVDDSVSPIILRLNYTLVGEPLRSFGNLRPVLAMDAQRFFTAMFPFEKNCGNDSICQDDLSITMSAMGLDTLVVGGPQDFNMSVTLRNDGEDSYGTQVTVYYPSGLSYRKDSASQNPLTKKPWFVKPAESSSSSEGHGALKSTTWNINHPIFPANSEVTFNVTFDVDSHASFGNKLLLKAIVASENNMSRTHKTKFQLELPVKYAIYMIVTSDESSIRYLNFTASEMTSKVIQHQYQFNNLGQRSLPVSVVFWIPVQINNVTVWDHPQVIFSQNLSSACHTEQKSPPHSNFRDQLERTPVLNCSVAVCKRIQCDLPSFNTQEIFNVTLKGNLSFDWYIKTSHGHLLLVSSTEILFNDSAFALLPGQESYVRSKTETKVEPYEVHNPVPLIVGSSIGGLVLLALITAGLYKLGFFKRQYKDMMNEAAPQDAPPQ

These are yes or no findings as the source states them, for the method shown. In cells and extracts the contact can be indirect. Some results given as binding are weak or reduced against the parent protein; the word gives no strength.

As to “macrophage CR3 (CD11b/CD18), endogenous in mouse immortalized bone marrow-derived macrophages (iBMDM) (from UniProt P05555 17-1153; P11835 24-771) (complex)”, the binding entry was “binds”.

These data come from article PMC11082240.
